Chains of the proteins cited; added tags and fusions are not shown.
UniProt P98170: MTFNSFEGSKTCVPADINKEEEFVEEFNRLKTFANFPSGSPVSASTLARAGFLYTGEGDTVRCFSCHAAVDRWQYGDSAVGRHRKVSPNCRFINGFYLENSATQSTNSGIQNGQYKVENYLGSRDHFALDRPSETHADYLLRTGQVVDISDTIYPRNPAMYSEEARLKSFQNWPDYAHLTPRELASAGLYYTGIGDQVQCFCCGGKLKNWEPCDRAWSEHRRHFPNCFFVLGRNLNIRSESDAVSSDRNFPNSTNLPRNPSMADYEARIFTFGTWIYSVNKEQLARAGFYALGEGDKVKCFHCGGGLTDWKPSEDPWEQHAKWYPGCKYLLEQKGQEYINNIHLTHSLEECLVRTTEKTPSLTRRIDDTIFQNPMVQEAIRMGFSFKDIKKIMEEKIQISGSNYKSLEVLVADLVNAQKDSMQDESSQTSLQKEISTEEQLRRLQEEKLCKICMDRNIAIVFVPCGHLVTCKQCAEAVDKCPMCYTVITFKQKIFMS

According to publication PMC10412619:

Target: T1, DNA polymerase iota (POLI) (human (endogenous in TE-1)) (UniProt Q9UNA4)
T1 sequence: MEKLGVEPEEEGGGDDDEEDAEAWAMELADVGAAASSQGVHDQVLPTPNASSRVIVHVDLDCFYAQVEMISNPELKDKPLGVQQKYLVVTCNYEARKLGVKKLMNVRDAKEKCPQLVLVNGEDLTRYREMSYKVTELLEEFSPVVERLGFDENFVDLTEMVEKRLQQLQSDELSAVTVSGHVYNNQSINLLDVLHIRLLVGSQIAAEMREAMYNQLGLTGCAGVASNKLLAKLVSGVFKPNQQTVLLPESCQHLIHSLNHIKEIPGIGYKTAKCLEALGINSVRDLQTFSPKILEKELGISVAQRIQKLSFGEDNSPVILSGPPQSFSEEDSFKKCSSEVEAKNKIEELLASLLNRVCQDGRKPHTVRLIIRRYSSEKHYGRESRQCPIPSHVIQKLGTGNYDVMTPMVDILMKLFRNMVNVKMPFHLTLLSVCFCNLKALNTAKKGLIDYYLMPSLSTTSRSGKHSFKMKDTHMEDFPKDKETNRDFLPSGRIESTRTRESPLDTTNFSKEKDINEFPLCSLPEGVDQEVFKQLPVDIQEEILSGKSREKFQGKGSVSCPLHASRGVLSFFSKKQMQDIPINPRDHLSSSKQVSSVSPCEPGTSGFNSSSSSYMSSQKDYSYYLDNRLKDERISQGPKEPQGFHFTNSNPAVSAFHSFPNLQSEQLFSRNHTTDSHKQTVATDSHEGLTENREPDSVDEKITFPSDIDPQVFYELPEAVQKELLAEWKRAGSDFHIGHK
Experiment: affinity purification with mass spectrometry; immunoprecipitation from cell lysate (RIPA lysis buffer, protein A + G agarose), LC-MS/MS, to identify proteins that interact with POLI

- binding: binds
Substance: X-linked inhibitor of apoptosis (XIAP) (from UniProt P98170 1-497)

Results are given in words; binding and its absence hold for the method and conditions named. Binding seen in cells or lysates may run through a third protein. A yes stands for co-enrichment or nearness to the bait. Other partners may have been found.
